Source: publication PMC7819943, “Rice protein-binding microarrays: a tool to detect cis-acting elements near promoter regions in rice”
The list shows a part of the results.

Protein sequences, listed by entry. Tags and fused reporters are not part of them.
UniProt Q0JBA9, entry or part of it: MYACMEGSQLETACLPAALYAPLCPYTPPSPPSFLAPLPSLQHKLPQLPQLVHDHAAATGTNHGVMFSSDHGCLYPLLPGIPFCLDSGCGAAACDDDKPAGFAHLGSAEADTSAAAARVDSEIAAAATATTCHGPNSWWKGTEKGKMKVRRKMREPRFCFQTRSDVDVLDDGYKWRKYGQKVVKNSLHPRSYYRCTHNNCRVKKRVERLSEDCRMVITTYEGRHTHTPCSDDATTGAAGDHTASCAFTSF

The sequences below were run against OsWRKY34 (Oryza sativa, UniProt Q0JBA9 1-250) (assay: protein-binding microarray (RPBM); PBS, 2% BSA, 51.3 ng/ul salmon testes DNA, 50 uM zinc acetate, 200 nM TF, 25 C, 1 h; high values mean tight binding). Details: protein: recombinant; tags: N-terminal polyhistidine and DsRed monomer fusion (pET32a); label: CyDye5-dUTP incorporated in the synthesized complementary strand; 3' TTTTT single-stranded linker to array surface; dsDNA, one strand shown.
Summary of the method: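 Transcription factors were made in E. coli BL21-CodonPlus as N-terminal fusions to a polyhistidine tag and DsRed, then purified on Ni–NTA. After primer extension with Cy5-dUTP and blocking with 2% BSA, a custom Agilent array was exposed for 1 h at 25 °C to 200 nM protein in PBS, 2% BSA, salmon testes DNA and 50 µM zinc acetate. Washed arrays were scanned on an Axon 4000B, and the binding signal is per-feature fluorescence intensity in arbitrary units.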

Row | Sequence | binding signal
1 | ATTAACTCGAAGTTTTAATATTGACCATGCCATCCTTGATCGGAGTCACCTAGTGCAG | 10200 fluorescence intensity (a.u.)
2 | AATACTGAGTACTCTTCCCATGTAAATATTTTTGAACTCTCGGAGTCACCTAGTGCAG | 10700 fluorescence intensity (a.u.)
3 | CGCCGCCGGCTTCTGTCTCTCTCCCCGCGCTCACTTGCTGCGGAGTCACCTAGTGCAG | 9500 fluorescence intensity (a.u.)
4 | CTCTCTCTTTTTCTACCAGAGGAGTCAAACGCTTTTTTTTCGGAGTCACCTAGTGCAG | 8650 fluorescence intensity (a.u.)
5 | AACATTTTTTTCAAGTTCTTAGCTTTTATTTAATTAATTACGGAGTCACCTAGTGCAG | 8130 fluorescence intensity (a.u.)
6 | AAGGGGCCTAAATTTTCGGTTTTAGTTTGTTTTTTTCTATCGGAGTCACCTAGTGCAG | 8590 fluorescence intensity (a.u.)
7 | AGACGCATCTTCGCTTTTTGCCTCGGCGTCGGTGCTCCACCGGAGTCACCTAGTGCAG | 8050 fluorescence intensity (a.u.)
8 | ACTGGTGGCCGGGTATGCTTCTCTCTCTTAGTTTCATTAGCGGAGTCACCTAGTGCAG | 9590 fluorescence intensity (a.u.)
9 | TAGCCTAGCTCACCCATCCCATCCTCGAGCCAACGCAACACGGAGTCACCTAGTGCAG | 8180 fluorescence intensity (a.u.)
10 | GCCTCTCCGATGCGCAATTGACTGGTGGGTGACAATGACCCGGAGTCACCTAGTGCAG | 8540 fluorescence intensity (a.u.)
11 | TGCTCCGCCGCCGCCGTTCCCACTCCTTCTCCGTCGCCTTCGGAGTCACCTAGTGCAG | 8530 fluorescence intensity (a.u.)
12 | GGACCCTCTCTTGTTTTTCTTCGTTGCTCGCGAGCTCTTCCGGAGTCACCTAGTGCAG | 8900 fluorescence intensity (a.u.)
13 | TACTACTCTCGTGTGGCAAAATTTTGTCTTAGTTCTTGAACGGAGTCACCTAGTGCAG | 8100 fluorescence intensity (a.u.)
14 | CGATCTCTCTCTCTCACACACCCGCCTCACCCTCACCGCCCGGAGTCACCTAGTGCAG | 10800 fluorescence intensity (a.u.)
15 | TATTTGTCATTCGCTGTCTATGACATATGAGCCCTCATGTCGGAGTCACCTAGTGCAG | 8280 fluorescence intensity (a.u.)
16 | ACCAAACTAATTTTCTCATTTATGCCGTCGTTACATTGTTCGGAGTCACCTAGTGCAG | 10900 fluorescence intensity (a.u.)
17 | ACTATTATCATCCTCTCTCGTTTTTTTAGGACGGTTTTTGCGGAGTCACCTAGTGCAG | 9660 fluorescence intensity (a.u.)
18 | TTGATATTTTCATCACTATGAAGTACTTCCTCCGTTTCACCGGAGTCACCTAGTGCAG | 9610 fluorescence intensity (a.u.)
19 | CATAATTTCCTTTCTCACCGGGCCACTCTCCACACCCGCTCGGAGTCACCTAGTGCAG | 8080 fluorescence intensity (a.u.)
20 | CTTACTATACTATTAATATATGGTCACACATGTCATACACCGGAGTCACCTAGTGCAG | 10000 fluorescence intensity (a.u.)
21 | ATTTTATCCAACGTTTGACCATTCGTCTTATATAAAATATCGGAGTCACCTAGTGCAG | 9960 fluorescence intensity (a.u.)

Row | Sequence | binding signal
22 | GGGATGTTGTATCTGCTTATTTGCGGTCTATGAACGAATTCGGAGTCACCTAGTGCAG | 10400 fluorescence intensity (a.u.)
23 | ACTCCAGTCCAGTCCAGTCCAGCGCACTCCTCACTCAACACGGAGTCACCTAGTGCAG | 9300 fluorescence intensity (a.u.)
24 | GTTCCCAGAATTTTAGCACTACCACCTACAAGTTCCAATCCGGAGTCACCTAGTGCAG | 8160 fluorescence intensity (a.u.)
25 | GGAGGAGGTGGAGGCGCTGCTGGTGGTGGAGGCCGTGGTGCGGAGTCACCTAGTGCAG | 8020 fluorescence intensity (a.u.)
26 | ATGTGACGTCCCACGTGCGCCTCGCCTCCACCTCCACCGCCGGAGTCACCTAGTGCAG | 8560 fluorescence intensity (a.u.)
27 | TTATAAGTTATTGGTGGCTTCAGTTGTTTTCATATATGTGCGGAGTCACCTAGTGCAG | 8060 fluorescence intensity (a.u.)
28 | CTCTCGAACAACCGCCGGAGCCAACCACCGCCGCCGCGCCCGGAGTCACCTAGTGCAG | 9600 fluorescence intensity (a.u.)
29 | GCACCGGGTGCCTGGGTCCTGTGTTGTGTATTGTGTTTATCGGAGTCACCTAGTGCAG | 9170 fluorescence intensity (a.u.)
30 | TGCGCCCCATCTGTCAATGTGGTTCTCAGGCAACTGTTCTCGGAGTCACCTAGTGCAG | 8990 fluorescence intensity (a.u.)
31 | CTCTCATAACATTTTGCTCTTTATCTCTTTATATTTTTCTCGGAGTCACCTAGTGCAG | 12800 fluorescence intensity (a.u.)
32 | ATATCCTACTTTGATTCGGTCGTCTTTAGTACGTTTCTCCCGGAGTCACCTAGTGCAG | 11200 fluorescence intensity (a.u.)
33 | GCCATGGCATTCGCGGATCACCACCTGCACATCCCGGACACGGAGTCACCTAGTGCAG | 9820 fluorescence intensity (a.u.)
34 | GGACTTGCAACAATTACAGTTCTGCTCTATAACAGCACATCGGAGTCACCTAGTGCAG | 8550 fluorescence intensity (a.u.)
35 | GCGTTTCTGCTCTGTCTGTCTCCTTTGGCCTTTCTCAGTTCGGAGTCACCTAGTGCAG | 15100 fluorescence intensity (a.u.)
36 | ATTATTATTTACTTTTTTGTGACTTACTTTATTATCCAAACGGAGTCACCTAGTGCAG | 8260 fluorescence intensity (a.u.)
37 | GGAGAGTAGCAGTGTGGTTGATGATGGTGTTCTTGCTACTCGGAGTCACCTAGTGCAG | 9890 fluorescence intensity (a.u.)
38 | TTCTCCTGCTCCCGCCGCATTCGCTCACCGACACCGGTGACGGAGTCACCTAGTGCAG | 16000 fluorescence intensity (a.u.)
39 | CCCACCAGGCCACCAAACTCTCTCGGGCCGAAACGGTCAACGGAGTCACCTAGTGCAG | 8380 fluorescence intensity (a.u.)
40 | CTTTTCCAACTTCAACTCACCTGTTTTTCGCGCGCACGTTCGGAGTCACCTAGTGCAG | 10500 fluorescence intensity (a.u.)
41 | CGTCGGTGTGATTGATGGTGGTTTTGTTGTCTGATGATGACGGAGTCACCTAGTGCAG | 9740 fluorescence intensity (a.u.)
42 | GGTGGAGGTTGTCGTCCCTCCAAACACACGCGCGCGCAACCGGAGTCACCTAGTGCAG | 9130 fluorescence intensity (a.u.)

Quoted from the listing:
CCCACCAGGCCACCAAACTCTCTCGGGCCGAAACGGTCAACGGAGTCACCTAGTGCAG – binding signal: 8380 fluorescence intensity (a.u.)
GGAGAGTAGCAGTGTGGTTGATGATGGTGTTCTTGCTACTCGGAGTCACCTAGTGCAG – binding signal: 9890 fluorescence intensity (a.u.)
